For the assay, the target named is Lin54 subunit of the DREAM complex (human (endogenous in 1BR3-hTERT)) (UniProt Q6MZP7). Briefly: co-IP; endogenous proteins in lysates of 1BR3-hTERT parental, PBRM1 KO and PBRM1 KO rescue cells, after irradiation; antibody on protein G Dynabeads, 2500 ug total protein, IP lysis buffer (50 mM Tris pH 7.5, 150 mM NaCl, 0.5% NP-40, 3 mM MgCl2, benzonase), overnight at 4°C; Western blot. In general terms: In western blotting, separated proteins are transferred to a membrane and probed.

Protein sequences, listed by entry. Tags and fused reporters are not part of them.
UniProt Q6MZP7: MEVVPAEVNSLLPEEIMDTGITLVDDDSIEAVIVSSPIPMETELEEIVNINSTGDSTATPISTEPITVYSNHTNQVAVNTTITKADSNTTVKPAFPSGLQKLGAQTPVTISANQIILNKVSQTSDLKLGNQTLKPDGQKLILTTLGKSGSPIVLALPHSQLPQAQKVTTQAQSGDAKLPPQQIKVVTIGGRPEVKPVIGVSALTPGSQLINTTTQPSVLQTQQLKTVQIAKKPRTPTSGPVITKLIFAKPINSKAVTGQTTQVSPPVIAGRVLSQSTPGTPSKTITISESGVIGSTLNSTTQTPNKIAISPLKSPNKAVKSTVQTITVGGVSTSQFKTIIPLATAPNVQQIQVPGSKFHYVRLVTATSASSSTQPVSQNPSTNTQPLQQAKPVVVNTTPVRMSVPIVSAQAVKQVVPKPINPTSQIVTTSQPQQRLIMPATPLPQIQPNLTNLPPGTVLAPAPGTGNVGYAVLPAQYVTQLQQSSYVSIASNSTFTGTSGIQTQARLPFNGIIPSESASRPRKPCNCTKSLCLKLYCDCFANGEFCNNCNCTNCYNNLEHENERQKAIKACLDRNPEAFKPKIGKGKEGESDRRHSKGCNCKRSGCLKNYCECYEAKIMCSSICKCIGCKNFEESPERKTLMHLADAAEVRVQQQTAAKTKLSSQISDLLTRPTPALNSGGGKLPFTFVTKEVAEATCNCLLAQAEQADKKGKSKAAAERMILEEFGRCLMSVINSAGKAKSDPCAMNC
UniProt Q08999: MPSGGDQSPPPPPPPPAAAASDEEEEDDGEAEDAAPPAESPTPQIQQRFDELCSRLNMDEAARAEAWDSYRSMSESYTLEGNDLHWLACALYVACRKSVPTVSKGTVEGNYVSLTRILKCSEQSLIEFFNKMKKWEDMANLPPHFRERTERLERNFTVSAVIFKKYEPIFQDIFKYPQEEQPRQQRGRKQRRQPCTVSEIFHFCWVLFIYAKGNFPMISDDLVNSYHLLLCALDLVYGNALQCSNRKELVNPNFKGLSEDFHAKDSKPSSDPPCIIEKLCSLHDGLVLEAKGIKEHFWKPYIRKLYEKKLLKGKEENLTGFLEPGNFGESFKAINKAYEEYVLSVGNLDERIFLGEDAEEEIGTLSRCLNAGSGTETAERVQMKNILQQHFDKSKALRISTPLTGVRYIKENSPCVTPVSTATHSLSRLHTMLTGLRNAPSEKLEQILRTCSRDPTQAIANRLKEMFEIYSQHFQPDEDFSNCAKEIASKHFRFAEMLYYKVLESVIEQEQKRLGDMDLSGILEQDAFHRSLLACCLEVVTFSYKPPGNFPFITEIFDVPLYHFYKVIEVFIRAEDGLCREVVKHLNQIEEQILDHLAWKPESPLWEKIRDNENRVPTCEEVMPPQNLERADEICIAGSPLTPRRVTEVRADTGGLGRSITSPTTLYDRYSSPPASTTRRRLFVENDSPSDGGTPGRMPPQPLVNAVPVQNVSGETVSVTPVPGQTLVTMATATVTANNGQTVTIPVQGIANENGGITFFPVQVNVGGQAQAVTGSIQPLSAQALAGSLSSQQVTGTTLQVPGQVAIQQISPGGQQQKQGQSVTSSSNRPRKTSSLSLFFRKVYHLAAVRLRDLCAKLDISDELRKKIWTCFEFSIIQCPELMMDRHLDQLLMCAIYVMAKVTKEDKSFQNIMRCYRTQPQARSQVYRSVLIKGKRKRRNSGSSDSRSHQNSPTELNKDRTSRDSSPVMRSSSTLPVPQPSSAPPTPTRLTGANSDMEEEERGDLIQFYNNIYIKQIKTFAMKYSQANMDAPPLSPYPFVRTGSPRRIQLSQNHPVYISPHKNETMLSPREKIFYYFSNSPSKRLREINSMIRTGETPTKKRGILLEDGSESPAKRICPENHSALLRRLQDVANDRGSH

No constants are given. Whether binding was seen depends on the method and setting. Binding seen in cells or lysates may run through a third protein. Some results given as binding are weak or reduced against the parent protein; the word gives no strength.

In the case of “p130 pocket protein (from UniProt Q08999 1-1139)”, the binding result is “binds”.

Values taken from article PMC9480851.
